1 molecule from publication PMC12282863 can be followed below.

The target in this experiment is Plasmodium falciparum apicoplast chaperonin 60, endogenously V5-tagged (CPN60^V5-apt) (P. falciparum). Kind of experiment: co-IP; anti-V5 (D3H8Q) antibody crosslinked to protein G Dynabeads, precipitating CPN60^V5 from sonicated extract of CPN60^V5-apt; ClpP^DEAD-Ty parasites; extraction buffer 40 mM Tris HCl pH 7.6, 75 mM KCl, 1 mM EDTA, 15% glycerol; 4°C; blotted with anti-Ty, anti-V5 and anti-aldolase.

Results are given in words; binding and its absence hold for the method and conditions named. Binding seen in cells or lysates may run through a third protein.

B1: aldolase (P. falciparum, endogenous) (protein, UniProt Q7KQL9 1-369)
chain: MAHCTEYMNAPKKLPADVAEELATTAQKLVQAGKGILAADESTQTIKKRFDNIKLENTIENRASYRDLLFGTKGLGKFISGAILFEETLFQKNEAGVPMVNLLHNENIIPGIKVDKGLVNIPCTDEEKSTQGLDGLAERCKEYYKAGARFAKWRTVLVIDTAKGKPTDLSIHETAWGLARYASICQQNRLVPIVEPEILADGPHSIEVCAVVTQKVLSCVFKALQENGVLLEGALLKPNMVTAGYECTAKTTTQDVGFLTVRTLRRTVPPALPGVVFLSGGQSEEEASVNLNSINALGPHPWALTFSYGRALQASVLNTWQGKKENVAKAREVLLQRAEANSLATYGKYKGGAGGENAGASLYEKKYVY
As for B1, the binding result is recorded as “no binding”.
